Results from patent US20070073060A1, “Tricycle indole hydroxyethlamine derivatives and their use in the treatment of alzheimer's disease” (priority 2003, published 2007).
Some results were stated once for a whole list of compounds, not compound by compound.

The chains behind the UniProt entries cited, without tags or fusion partners. Residues count along the entry.
UniProt P56817, 46-501: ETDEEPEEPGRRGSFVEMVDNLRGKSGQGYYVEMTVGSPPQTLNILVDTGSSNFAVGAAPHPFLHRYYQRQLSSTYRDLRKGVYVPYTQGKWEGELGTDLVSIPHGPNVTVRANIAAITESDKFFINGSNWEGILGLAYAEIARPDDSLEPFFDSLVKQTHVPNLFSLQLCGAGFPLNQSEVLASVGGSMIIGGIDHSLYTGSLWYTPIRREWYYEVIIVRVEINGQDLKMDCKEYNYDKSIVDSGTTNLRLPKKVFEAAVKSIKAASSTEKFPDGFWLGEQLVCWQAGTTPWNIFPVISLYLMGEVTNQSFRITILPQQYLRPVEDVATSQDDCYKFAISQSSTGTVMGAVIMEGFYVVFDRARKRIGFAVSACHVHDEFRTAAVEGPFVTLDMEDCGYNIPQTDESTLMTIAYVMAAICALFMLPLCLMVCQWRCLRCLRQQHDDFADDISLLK
UniProt P07339, 65-412, species assumed: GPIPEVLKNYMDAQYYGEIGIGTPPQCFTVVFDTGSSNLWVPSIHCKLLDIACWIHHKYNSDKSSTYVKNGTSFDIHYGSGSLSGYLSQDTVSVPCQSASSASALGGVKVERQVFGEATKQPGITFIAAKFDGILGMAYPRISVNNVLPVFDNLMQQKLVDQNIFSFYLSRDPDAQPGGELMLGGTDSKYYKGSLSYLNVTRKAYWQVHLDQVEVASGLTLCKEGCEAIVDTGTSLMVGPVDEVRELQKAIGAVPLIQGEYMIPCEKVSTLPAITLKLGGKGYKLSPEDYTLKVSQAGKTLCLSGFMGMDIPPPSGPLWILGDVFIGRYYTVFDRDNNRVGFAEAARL

How the values were obtained:
Asp2 = Asp2 (Homo sapiens, UniProt P56817); experiment: Asp-2 Inhibitory Assay; assay type: biochemical; settings: Assay (I); FAM-SEVNLDAEFK-TAMRA substrate, pH 4.5, 1 h room temperature; range over all examples, units printed in the value (nM to μM)
Cathepsin D = Cathepsin D (Homo sapiens, UniProt P07339); experiment: Cathepsin D Inhibitory Assay; assay type: biochemical; settings: Assay (II); FAM-SEVNLDAEFK-TAMRA substrate, pH 4.5, 1 h room temperature; range over all examples, units printed in the value (nM to >μM); read-out: inhibition (CatD)

Compound	inhibition (Asp2) (Asp2)	IC50 (Cathepsin D) [nM]
CCn1cc2c3c(cc(C(=O)N[C@@H](Cc4ccccc4)[C@H](O)CNC4CCC4)cc31)N(C)S(=O)(=O)CC2.O=CO [Example E11, Formic acid - N-[(1S, 2R)-3-(Cyclobutylamino)-2-hydroxy-1-(phenylmethyl)propyl]-6-ethyl-1-methyl-1,3,4,6-tetrahydro[1,2]thiazepino[5,4,3-cd]indole-8-carboxamide 2,2-dioxide (1:1)]	2 nM-10 μM	≥ 30
CCn1cc2c3c(cc(C(=O)N[C@@H](Cc4ccccc4)[C@H](O)CNc4ccc(C)cc4)cc31)N(C)S(=O)(=O)CC2 [Example E48, 6-Ethyl-N-[(1S, 2R)-2-hydroxy-3-[(4-methylphenyl)amino]-1-(phenylmethyl)propyl]-1-methyl-1,3,4,6-tetrahydro[1,2]thiazepino[5,4,3-cd]indole-8-carboxamide 2,2-dioxide]	2 nM-10 μM	≥ 30
